The experiment deals with B6C3F1 mice, Lewis lung carcinoma iv, survival T/C. The experiment in a line: NCI In Vivo Anticancer Drug Screen. Data for tumor model Lewis Lung Carcinoma (intravenous) in B6C3F1 mice. Conditions: T/C endpoint: median survival time, schedule: Q01DX009 (ip), higher T/C = longer survival. Summed up: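 Tumors were transplanted into mice, which were then dosed with compound or vehicle. Survival was recorded in each group, and the treated figure was divided by the control figure.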

The mark [1] stands for this setting: dose: 800.0 mg/kg/injection, vehicle: Klucel (hydroxypropylcellulose) (HPC).
[2] abbreviates: dose: 200.0 mg/kg/injection, vehicle: saline with Tween-80.
The mark [3] stands for this setting: dose: 100.0 mg/kg/injection, vehicle: Klucel (hydroxypropylcellulose) (HPC).
Where [4] appears, read: dose: 0.5 mg/kg/injection, vehicle: saline.
Where [5] appears, read: dose: 2.0 mg/kg/injection, vehicle: saline.
Where [6] appears, read: dose: 4.0 mg/kg/injection, vehicle: saline.
Setting [7] is: dose: 8.0 mg/kg/injection, vehicle: saline.

Each structure is given as a SMILES string. The list is a part of this screen's results and no random one: it gathers tests that were run many times, whatever their T/C, doses with no T/C, and many T/C values between a quarter and a half above the control. Further doses and runs are listed elsewhere. T/C: endpoint of the treated group in % of that of the vehicle group. Some entries give survivors of the animals treated and no T/C: the source files T/C as zero there, which appears to mark a toxic dose or a test without result, not a measured value. Some survivor counts are full or nearly so, which does not show that the dose was tolerated: the source hardly ever lists a survival T/C far under the control, and the zero likely stands for such cases as well. Counts of survivors are from the toxicity check (mostly the fifth day) where no day follows; animals may have died later. Schedules are NCI's codes, taken here to give the interval after Q, in days (D) or hours (H), and the number of doses after X. Some entries were tested several times; the results are listed from low to high. For survival time, the PubChem record calls one and a half times the control and up active, and a quarter to a half above the control has no call in these data; cut-offs in other NCI protocols can differ. Signs of the kind (2×) say how often a value occurs here. Some T/C values carry the count of animals alive at the toxicity check (mostly the fifth day); where none is given, no animal had died by that day.

In the case of `CCC(C)Nc1ccc(N)cc1` (stereo not given), for the setting “dose: 24.0 mg/kg/injection, vehicle: Klucel (hydroxypropylcellulose) (HPC)”, the survivor count is on record as 2 of 10.

For `C[C@]12C=CC(=O)C=C1CC[C@@H]1[C@@H]2[C@@H](O)C[C@@]2(C)[C@H]1CC[C@]2(O)C(=O)CO`, the survivor count under setting [1] is 9 of 10.

On to `COC1=C(C)C(=O)C2=C(C1=O)C1C3CC4=C(C(=O)C(OC)=C(C)C4=O)C(CNC(=O)C(C)=O)N3C(C#N)C(C2)N1C` (stereo not given), for which the T/C (dose: 2.0 mg/kg/injection, vehicle: Klucel (hydroxypropylcellulose) (HPC)) is 134 % of control. For the setting “dose: 4.0 mg/kg/injection, vehicle: Klucel (hydroxypropylcellulose) (HPC)”, the survivor count is given as 0 of 10.

Turning to `C/C=C(\C)c1cc(=O)c2c(C)cc3c(c2o1)C(=O)c1c(O)c(C2CC(C)(N(C)C)C(O)C(C)O2)cc(C2CC(N(C)C)C(O)C(C)O2)c1C3=O` (stereo not given), the survivor count runs as follows: (dose: 500.0 micrograms/kg/injection, vehicle: saline) 9 of 10; (dose: 1000.0 micrograms/kg/injection, vehicle: saline) 10 of 10.

Regarding `COc1cccc2c1C(=O)c1c(O)c3c(c(O)c1C2=O)C[C@@](O)(/C(C)=N\NC(=O)CO)C[C@@H]3OC1CC(N)C(O)C(C)O1` (stereo not given in full), the survivor count reads like this: (dose: 12.5 mg/kg/injection, vehicle: saline) 10 of 10; (dose: 25.0 mg/kg/injection, vehicle: saline) 10 of 10; (dose: 50.0 mg/kg/injection, vehicle: saline) 10 of 10.

Turning to `C/C=C/C=C1/OC(C)=C(C(C)=O)C1=O`, the survivor count runs as follows: under setting [2], 8 of 10; (dose: 400.0 mg/kg/injection, vehicle: saline with Tween-80) 7 of 10.

For `CC(=O)OCC1OC([S-])C(OC(C)=O)C(OC(C)=O)C1OC(C)=O.CC[PH+](CC)CC.CC[PH+](CC)CC.[Au].[Au]` (stereo not given), where the note is “dose: 20.0 mg/kg/injection, vehicle: Klucel (hydroxypropylcellulose) (HPC)”, the survivor count is 0 of 10.

In the case of `c1ccc([P+](c2ccccc2)(c2ccccc2)c2ccccc2)cc1`, where the note is “dose: 12.0 mg/kg/injection, vehicle: saline”, the survivor count was 10 of 10.

For `CC12CC(C(=O)O)C3(O)CC(C)(C1)CC(C)(C2)C3` (stereo not given) (tested in a mixture with another compound), for the setting “dose: 50.0 mg/kg/injection, vehicle: Klucel (hydroxypropylcellulose) (HPC)”, the T/C was 134 % of control.

On to `BrC1CC(Br)c2c1c1c(c3c2C(Br)CC3Br)C(Br)CC1Br` (stereo not given), for which the T/C (dose: 100.0 mg/kg/injection, vehicle: saline with Tween-80) was 126 % of control.

Turning to `C/C(=N\N=C(/[Se])N1CC2CCC(CC2)C1)c1ccccn1`, the survivor count is, setting by setting: (dose: 12.5 mg/kg/injection, vehicle: Klucel (hydroxypropylcellulose) (HPC)) 10 of 10; (dose: 25.0 mg/kg/injection, vehicle: Klucel (hydroxypropylcellulose) (HPC)) 9 of 10.

Take `CCN1/C(=C/C=C/C=C\C=C\c2sc3ccc4ccccc4c3[n+]2CC)Sc2ccc3ccccc3c21`: the survivor count was 10 of 10 (dose: 5.0 mg/kg/injection, vehicle: saline with Tween-80); 10 of 10 (dose: 10.0 mg/kg/injection, vehicle: saline with Tween-80); 8 of 10 (dose: 20.0 mg/kg/injection, vehicle: saline with Tween-80); 8 of 10 and 10 of 10 (dose: 40.0 mg/kg/injection, vehicle: saline with Tween-80).

`O=C1CN(Cc2ccc3c(c2)OCO3)NO1`: under setting [2], the survivor count is 10 of 10.

As to `NC(CSC(c1ccccc1)(c1ccccc1)c1ccccc1)C(=O)O` (stereo not given), under setting [3], the survivor count is given as 5 of 10.

With `CO[C@H]1Nc2c(ccc(C)c2O)C(=O)N2C=C(/C=C/C(N)=O)C[C@@H]12`, the survivor count is given as 10 of 10 (dose: 0.5 mg/kg/injection, vehicle: saline + alcohol) and 2 of 10 (dose: 1.0 mg/kg/injection, vehicle: saline + alcohol).

`COc1cccc2c1C(=O)c1c(O)c3c(c(O)c1C2=O)C[C@@](O)(C(=O)CO)C[C@@H]3OC1CC(N)C(O)C(C)O1` (stereo not given in full): the T/C reads like this: (dose: 0.25 mg/kg/injection, vehicle: saline) 91, 97, 101, 102, 104, 116 % of control; (dose: 0.25 mg/kg/injection, vehicle: water) 129 % of control [9 of 10 alive]; under setting [4], 86 [9 of 10 alive], 92, 98, 101 (2×), 104 (2×), 106, 107, 111 (2×), 114 % of control; (dose: 1.0 mg/kg/injection, vehicle: saline) 97, 105, 107, 108 [9 of 10 alive], 110 (4×), 112, 116, 119 (2×), 125 % of control; (dose: 1.0 mg/kg/injection, vehicle: water) 126 % of control; under setting [5], 106, 118, 119 [9 of 10 alive], 120 [9 of 10 alive], 125 (2×), 129 (3×), 132, 133, 143 % of control. In addition, the survivor count reads like this: under setting [4], 10 of 10; under setting [5], 10 of 10; under setting [6], 9 of 10 and 10 of 10; (dose: 4.0 mg/kg/injection, vehicle: water) 10 of 10; under setting [7], 8 of 10, 9 of 10, 10 of 10; (dose: 8.0 mg/kg/injection, vehicle: water) 9 of 10.

With `CCC(C(=O)O)C(=O)O.[NH2-].[NH2-].[Pt+2]`, the T/C (dose: 1.56 mg/kg/injection, vehicle: saline) was 127 % of control. Further, the survivor count was 10 of 10 (dose: 100.0 mg/kg/injection, vehicle: saline) and 10 of 10 (dose: 200.0 mg/kg/injection, vehicle: saline).

Turning to `Cc1ccc(S(=O)(=O)OCOS(=O)(=O)c2ccc(C)cc2)cc1`, the survivor count under setting [1] is recorded as 10 of 10.

Consider `N[C@@H](Cc1ccc(N(CCCl)CCCl)cc1)C(=O)O`, for which, under setting [6], the T/C is 125 % of control. Besides, the survivor count under setting [7] is given as 10 of 10.

`C/C(=N\NC(=S)N1CCN(c2ccccn2)CC1)c1ccccn1`: the survivor count runs as follows: (dose: 50.0 mg/kg/injection, vehicle: water) 5 of 10; (dose: 100.0 mg/kg/injection, vehicle: water) 0 of 10.

`COc1ccc(Cl)[n+]([O-])n1`: the survivor count under setting [3] is given as 8 of 10.

Turning to `CCOC(=O)c1ccc(NN=NCCF)cc1`, the T/C runs as follows: (dose: 25.0 mg/kg/injection, vehicle: distilled water + Tween-80) 137 % of control; (dose: 50.0 mg/kg/injection, vehicle: distilled water + Tween-80) 137 % of control (2×); (dose: 100.0 mg/kg/injection, vehicle: distilled water + Tween-80) 125 % of control; (dose: 200.0 mg/kg/injection, vehicle: distilled water + Tween-80) 137 % of control. Besides, the survivor count is, setting by setting: (dose: 200.0 mg/kg/injection, vehicle: distilled water + alcohol) 10 of 10; (dose: 400.0 mg/kg/injection, vehicle: distilled water + Tween-80) 10 of 10; (dose: 400.0 mg/kg/injection, vehicle: distilled water + alcohol) 6 of 10.

In the case of `CC1=NN(c2cccc(S(=O)(=O)O)c2)C(=O)C1N=Nc1cc(Cl)cc(S(=O)(=O)O)c1O.CC1=NN(c2cccc(S(=O)(=O)O)c2)C(=O)C1N=Nc1cc(Cl)cc(S(=O)(=O)O)c1O.[Cr]` (stereo not given), the survivor count (dose: 400.0 mg/kg/injection, vehicle: saline) is on record as 1 of 10 and the survivor count (dose: 800.0 mg/kg/injection, vehicle: saline) was 0 of 10.

These data come from PubChem BioAssay AID276 (DTP/NCI, 2004).
